Values of other authors as cited in US20060167276A1, “Clausenamide c5-hydroxyl derivatives and n-substituted derivatives, processes for their preparation, its composition and use” (priority 2002, published 2006).
Like-named read-outs stand apart in the source and are kept apart here. At least one compound was matched to its structure with a doubt left.

Details: cited from earlier work

CN1C(=O)[C@@H](O)[C@H](c2ccccc2)[C@@H]1[C@@H](O)c1ccccc1 [(−) clausenamide]
nootropic activity: effective nootropic activities | nootropic activity (listed as (−)Clausenamide): effective nootropic activity
